Data reported in ChEMBL document CHEMBL4828736, “Discovery of ASTX029, A Clinical Candidate Which Modulates the Phosphorylation and Catalytic Activity of ERK1/2” (J Med Chem, 2021).

By UniProt entry, the sequences of proteins in these tests, tags left out.
UniProt P08684, whole entry: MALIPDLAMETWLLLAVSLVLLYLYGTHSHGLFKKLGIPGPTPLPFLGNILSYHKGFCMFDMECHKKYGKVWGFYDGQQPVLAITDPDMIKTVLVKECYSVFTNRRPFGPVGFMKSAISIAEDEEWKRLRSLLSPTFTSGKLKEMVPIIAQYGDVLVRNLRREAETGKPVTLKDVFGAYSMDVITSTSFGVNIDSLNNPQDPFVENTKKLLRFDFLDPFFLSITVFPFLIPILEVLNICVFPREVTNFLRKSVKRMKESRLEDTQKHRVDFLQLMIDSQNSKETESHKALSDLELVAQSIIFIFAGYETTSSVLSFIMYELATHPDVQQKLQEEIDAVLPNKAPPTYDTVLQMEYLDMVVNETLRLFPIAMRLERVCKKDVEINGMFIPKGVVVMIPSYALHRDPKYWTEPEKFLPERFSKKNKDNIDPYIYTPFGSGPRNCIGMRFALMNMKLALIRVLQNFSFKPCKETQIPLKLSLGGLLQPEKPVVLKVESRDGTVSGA

Key:
in vitro [1] = conditions: CD1, mouse, microsomes
in vitro [2] = conditions: human, microsomes
CYP3A4 = CYP3A4 (Homo sapiens, UniProt P08684); experiment: in vitro; conditions: recombinant enzyme

COc1cc(F)cc([C@H](NC(=O)CN2Cc3ccc(-c4nc(NC5CCOCC5)ncc4Cl)cc3C2=O)[C@@H](C)O)c1
half-life at 40 min, 1 µM (in vitro [1]): 32 min
half-life at 40 min, 1 µM (in vitro [2]): 25 min
half-life at 40 min, 1 µM (CYP3A4): < 5 min
